The values that follow come from paper PMC4015977.

These are yes or no findings as the source states them, for the method shown. In cells and extracts the contact can be indirect. Some entries that bind do so weakly or less than the wild type.

This experiment addresses T1, active caspase-8 (labelled with biotin-VAD-fmk) (mouse (endogenous in MEF)) (UniProt O89110).
T1 sequence (chain, labelled in cells with biotin-VAD-fmk (bVAD-fmk)): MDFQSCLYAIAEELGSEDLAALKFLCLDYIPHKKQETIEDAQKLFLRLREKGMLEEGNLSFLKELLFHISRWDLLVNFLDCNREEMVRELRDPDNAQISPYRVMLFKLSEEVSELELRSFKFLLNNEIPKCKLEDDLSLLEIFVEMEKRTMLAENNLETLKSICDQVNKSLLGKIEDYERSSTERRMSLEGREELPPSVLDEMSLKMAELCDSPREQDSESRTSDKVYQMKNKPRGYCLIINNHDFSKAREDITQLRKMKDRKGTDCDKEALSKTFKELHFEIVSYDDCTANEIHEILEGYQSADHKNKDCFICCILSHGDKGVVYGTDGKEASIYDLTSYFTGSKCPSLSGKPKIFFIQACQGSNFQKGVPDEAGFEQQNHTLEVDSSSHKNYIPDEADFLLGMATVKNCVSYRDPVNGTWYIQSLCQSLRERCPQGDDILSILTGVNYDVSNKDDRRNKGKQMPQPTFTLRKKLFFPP
Kind of experiment: pull-down; biotin-VAD-fmk precipitation: MEFs 24 h after CVB3 infection incubated with 50 uM bVAD-fmk for 5 h at 37 C, lysed, 600 ug protein with magnetic streptavidin beads at 4 C for 2 h, 5 washes; caspase-8 and MAVS detected by immunoblot.

B1: mitochondrial antiviral signaling protein (MAVS) (protein, UniProt Q8VCF0 1-503)
chain: MTFAEDKTYKYIRDNHSKFCCVDVLEILPYLSCLTASDQDRLRASYRQIGNRDTLWGLFNNLQRRPGWVEVFIRALQICELPGLADQVTRVYQSYLPPGTSLRSLEPLQLPDFPAAVSGPSAFAPGHNIPDHGLRETPSCPKPVQDTQPPESPVENSEQLLQTNSGAVARMSGGSLIPSPNQQALSPQPSREHQEQEPELGGAHAANVASVPIATYGPVSPTVSFQPLPRTALRTNLLSGVTVSALSADTSLSSSSTGSAFAKGAGDQAKAATCFSTTLTNSVTTSSVPSPRLVPVKTMSSKLPLSSKSTAAMTSTVLTNTAPSKLPSNSVYAGTVPSRVPASVAKAPANTIPPERNSKQAKETPEGPATKVTTGGNQTGPNSSIRSLHSGPEMSKPGVLVSQLDEPFSACSVDLAISPSSSLVSEPNHGPEENEYSSFRIQVDESPSADLLGSPEPLATQQPQEEEEHCASSMPWAKWLGATSALLAVFLAVMLYRSRRLAQ
Regarding B1, the binding result is given as “binds”.
